Results deposited as PubChem BioAssay AID1159584 (Peter MacCallum Cancer Centre, 2016)

Screen: 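Genes that CDH1-null MCF10A cells selectively depend on to survive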 (primary screen)
Cells: human MCF10A breast epithelial cells, parental and CDH1-null
Reagent: siRNA against human genes
Read-out: 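Cell viability by CellTiter-Glo ATP luminescence, each line scaled to the mean of mock wells across plates, then CDH1-null over parental ratio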
Scale: CDH1-null / parental viability ratio: higher = CDH1-null cells survive relatively better than parental; CDH1-null viability vs mock: higher = more viable CDH1-null cells
Units: CDH1-null viability vs mock in fraction of mock
Shown is one part, drawn at random, of about 18,000 deposited reagents. Not all columns of the deposit are shown. Reagent sequences are not shown. The record does not give: the amount of reagent, the time to read-out.

The first 2 entries, to show the layout:
DCTD (dCMP deaminase)
- CDH1-null / parental viability ratio: 1.19
- CDH1-null viability vs mock: 1.02

ASIP (agouti signaling protein)
- CDH1-null / parental viability ratio: 1.65
- CDH1-null viability vs mock: 0.66

The listing, from the first entry:
DCTD (dCMP deaminase)
- CDH1-null / parental viability ratio: 1.19
- CDH1-null viability vs mock: 1.02

ASIP (agouti signaling protein)
- CDH1-null / parental viability ratio: 1.65
- CDH1-null viability vs mock: 0.66

KDF1 (keratinocyte differentiation factor 1)
- CDH1-null / parental viability ratio: 1.04
- CDH1-null viability vs mock: 0.54

TMEM37 (transmembrane protein 37)
- CDH1-null / parental viability ratio: 1.07
- CDH1-null viability vs mock: 0.81

HRH4 (histamine receptor H4)
- CDH1-null / parental viability ratio: 0.87
- CDH1-null viability vs mock: 0.8

ICAM1 (intercellular adhesion molecule 1)
- CDH1-null / parental viability ratio: 0.78
- CDH1-null viability vs mock: 0.52

SLC4A2
- CDH1-null / parental viability ratio: 0.93
- CDH1-null viability vs mock: 0.9

OR56A1 (olfactory receptor family 56 subfamily A member 1)
- CDH1-null / parental viability ratio: 0.81
- CDH1-null viability vs mock: 0.57

PTGDS (prostaglandin D2 synthase)
- CDH1-null / parental viability ratio: 1.34
- CDH1-null viability vs mock: 1.15

SNTG2 (syntrophin gamma 2)
- CDH1-null / parental viability ratio: 1.05
- CDH1-null viability vs mock: 0.88

FAM20A (FAM20A golgi associated secretory pathway pseudokinase)
- CDH1-null / parental viability ratio: 1.22
- CDH1-null viability vs mock: 0.84

NDUFV1 (NADH:ubiquinone oxidoreductase core subunit V1)
- CDH1-null / parental viability ratio: 1.22
- CDH1-null viability vs mock: 1.17

TTBK2 (tau tubulin kinase 2)
- CDH1-null / parental viability ratio: 0.76
- CDH1-null viability vs mock: 0.54

E2F1 (E2F transcription factor 1)
- CDH1-null / parental viability ratio: 1.14
- CDH1-null viability vs mock: 0.89

UGT1A8 (UDP glucuronosyltransferase family 1 member A8)
- CDH1-null / parental viability ratio: 1.19
- CDH1-null viability vs mock: 1.21

ZKSCAN2 (zinc finger with KRAB and SCAN domains 2)
- CDH1-null / parental viability ratio: 0.7
- CDH1-null viability vs mock: 0.6

ENTPD6 (ectonucleoside triphosphate diphosphohydrolase 6)
- CDH1-null / parental viability ratio: 0.93
- CDH1-null viability vs mock: 0.71

TIMP4 (TIMP metallopeptidase inhibitor 4)
- CDH1-null / parental viability ratio: 1.11
- CDH1-null viability vs mock: 0.9

INTS11 (integrator complex subunit 11)
- CDH1-null / parental viability ratio: 0.95
- CDH1-null viability vs mock: 0.59

JPT1 (Jupiter microtubule associated homolog 1)
- CDH1-null / parental viability ratio: 1.16
- CDH1-null viability vs mock: 0.88

FOXS1 (forkhead box S1)
- CDH1-null / parental viability ratio: 0.95
- CDH1-null viability vs mock: 0.7

INTS6 (integrator complex subunit 6)
- CDH1-null / parental viability ratio: 0.85
- CDH1-null viability vs mock: 0.8

NCKAP1L (NCK associated protein 1 like)
- CDH1-null / parental viability ratio: 0.89
- CDH1-null viability vs mock: 0.78

KRT10-AS1 (KRT10 antisense RNA 1)
- CDH1-null / parental viability ratio: 0.99
- CDH1-null viability vs mock: 0.88
